Assay results published in the supplement of paper PMC4962491.
± gives the standard deviation of the averaged measurements. This is a selection; strong and weak results do not stand in their true shares. Most values lie within the scatter of the assay; repeated measurements hardly agree.

System: FaDu
Assay: mitochondrial oxygen consumption rate normalised to cell number, Z score over the library; higher = higher oxygen consumption (negative = OCR reduction)
Settings: treatment time 24 h, assay medium: 5 mM galactose, 5 mM pyruvate, 4 mM glutamine
Protocol: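 Primary screen: FaDu cells were incubated 24 h with Pharmakon 1600 / TDI oncology set compounds at 2 or 10 uM. Mitochondrial-specific OCR (basal minus 2 uM antimycin A) was measured on a Seahorse XF96 in assay medium with 5 mM galactose, 5 mM pyruvate and 4 mM glutamine, then corrected for Hoechst cell number and expressed as a Z score […]. Compounds that cut cell number by >66% were excluded. Two repeats.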

| SMILES | mitochondrial oxygen consumption rate normalised (2 µM) | mitochondrial oxygen consumption rate normalised (10 µM) |
| --- | --- | --- |
| Nc1nc(F)nc2c1ncn2[C@@H]1O[C@H](COP(=O)(O)O)[C@@H](O)[C@@H]1O [Fludarabine Phosphate] | 0.548 ± 0.61 |  |
| CCOC(=O)N1CCC(=C2c3ccc(Cl)cc3CCc3cccnc32)CC1 | 0.43 ± 2.1 |  |
| NC(=O)c1ccccc1O | -0.323 ± 0.076 |  |
| COc1ccc(C(=O)CCC(=O)O)c2ccccc12 | 0.644 ± 0.81 |  |
| CC(C)C[C@H](NC(=O)[C@H](Cc1ccccc1)NC(=O)c1cnccn1)B(O)O [Bortezomib] | -0.557 ± 0.22 |  |
| Oc1c(Br)cc(Br)c2cccnc12 | 0.347 ± 1.1 | -1.77 ± 0.19 |
| c1ccc2c(c1)CCCC2C1=NCCN1 (stereo not drawn) | -1.33 ± 0.23 |  |
| C[C@@H](O)[C@H]1C(=O)N2C(C(=O)O)=C(SCCNC=N)C[C@H]12 | 0.219 ± 0.95 |  |
| Cc1ncc([N+](=O)[O-])n1C | 1.1 ± 1.1 |  |
| CCCCCN(C)CCC(O)(P(=O)(O)O)P(=O)(O)O | 0.647 ± 0.25 |  |
| C1N2CN3CN1CN(C2)C3 | 1.25 ± 0.56 |  |
| C[Se]CC[C@H](N)C(=O)O | 0.708 ± 0.94 |  |
| CC(C)c1nc(N(C)S(C)(=O)=O)nc(-c2ccc(F)cc2)c1/C=C/[C@@H](O)C[C@@H](O)CC(=O)O | 0.0565 ± 0.89 |  |
| C=C(CC)C(=O)c1ccc(OCC(=O)O)c(Cl)c1Cl | 0.878 ± 0.41 |  |
| C[N+](C)(C)CCOP(=O)(O)OP(=O)([O-])OC[C@H]1O[C@@H](n2ccc(N)nc2=O)[C@H](O)[C@@H]1O | -0.276 ± 0.29 |  |
| Nc1ccc(S(=O)(=O)NC(=O)c2ccccc2)cc1 | -0.643 ± 0.03 |  |
| FCOC(C(F)(F)F)C(F)(F)F | -0.822 ± 0.083 |  |
| CCN(CC)CCCC(C)Nc1ccnc2cc(Cl)ccc12 (stereo not drawn) | -3.58 ± 0.36 |  |
| CS(=O)(=O)c1ccc([C@@H](O)[C@@H](CF)NC(=O)C(Cl)Cl)cc1 | -0.4989 ± 0.0012 |  |
| CC(C)NCC(O)COc1cccc2ccccc12 (racemic) | 0.146 ± 0.61 | -0.291 ± 0.42 |
| Cc1cccc(C)c1NC(=O)c1ccccc1C(=O)O | 0.202 ± 0.32 | -0.418 ± 1.1 |
| O=C1OC(c2ccc(O)cc2)(c2ccc(O)cc2)c2ccccc21 | 1.339 ± 0.0034 |  |
| O=C(O)CN(CCN(CC(=O)O)CC(=O)O)CC(=O)O.[Na+].[Na+].[Na+] | -0.15 ± 0.32 |  |
| CC(C(=O)O)c1cccc(Oc2ccccc2)c1 (stereo not drawn) | -0.0899 ± 0.046 |  |

An excerpt of these results, with tabs.
SMILES	mitochondrial oxygen consumption rate normalised (2 µM)	mitochondrial oxygen consumption rate normalised (10 µM)
C[N+](C)(C)CCOP(=O)(O)OP(=O)([O-])OC[C@H]1O[C@@H](n2ccc(N)nc2=O)[C@H](O)[C@@H]1O	-0.276 ± 0.29	
Nc1ccc(S(=O)(=O)NC(=O)c2ccccc2)cc1	-0.643 ± 0.03	
FCOC(C(F)(F)F)C(F)(F)F	-0.822 ± 0.083	
CCN(CC)CCCC(C)Nc1ccnc2cc(Cl)ccc12 (stereo not drawn)	-3.58 ± 0.36	

Additional records follow:

| SMILES | mitochondrial oxygen consumption rate normalised (2 µM) | mitochondrial oxygen consumption rate normalised (10 µM) |
| --- | --- | --- |
| CCCc1ncc(C[n+]2ccccc2C)c(N)n1 | -0.103 ± 0.23 |  |
| CN(C)c1cnccn1 | 0.0545 ± 0.76 |  |
| CCn1cc(C(=O)O)c(=O)c2cc(F)c(N3CCNCC3)nc21 | 0.976 ± 0.094 |  |
| CC(=O)OCC(=O)NCCCOc1cccc(CN2CCCCC2)c1 | 0.298 ± 0.62 |  |
| C=CCc1ccc(O)c(OC)c1 | 0.166 ± 0.073 |  |
| OC[C@@H](O)[C@@H](O)[C@H](O)[C@H](O)CO | 0.388 ± 0.68 |  |
| CC(=O)N1CCN(c2ccc(OCC3COC(Cn4ccnc4)(c4ccc(Cl)cc4Cl)O3)cc2)CC1 (stereo not drawn) | -1.02 ± 0.04 |  |
| CC(C)NCC(O)c1ccc(NS(C)(=O)=O)cc1 (stereo not drawn) | -0.642 ± 1.1 |  |
| C#C[C@]1(O)CC[C@H]2[C@@H]3CCc4cc(OC)ccc4[C@H]3CC[C@@]21C | -0.815 ± 0.23 |  |
| O=C(O)P(=O)(O)O | 0.718 ± 0.47 |  |
| CCCCCCCCCCCCCCCC[N+](C)(C)CCN(Cc1ccc(OC)cc1)c1ncccn1 | -0.911 ± 0.17 | -2.13 ± 0.31 |
| Cc1nc(C)c(Cl)c(O)c1Cl | 0.979 ± 1.2 |  |
| CCN(CC)CCCC(C)Nc1c2ccc(Cl)cc2nc2ccc(OC)cc12 (stereo not drawn) | -2.83 ± 0.48 |  |
| CCN(CC)CCCC(C)Nc1c2ccc(Cl)cc2nc2ccc(OC)cc12 (stereo not drawn) [Quinacrine] | 0.315 ± 0.12 |  |
| NS(=O)(=O)c1ccc(C(=O)O)cc1 | 0.558 ± 0.47 |  |
| CCOc1ccccc1C(N)=O | -0.835 ± 0.23 |  |
| CO[C@H]1C[C@@H]2CC[C@@H](C)[C@@](O)(O2)C(=O)C(=O)N2CCCC[C@H]2C(=O)O[C@H]([C@H](C)C[C@@H]2CC[C@@H](O)[C@H](OC)C2)CC(=O)[C@H](C)/C=C(\C)[C@@H](O)[C@@H](OC)C(=O)[C@H](C)C[C@H](C)/C=C/C=C/C=C/1C | -0.204 ± 1.2 |  |
| CO[C@H]1C[C@@H]2CC[C@@H](C)[C@@](O)(O2)C(=O)C(=O)N2CCCC[C@H]2C(=O)O[C@H]([C@H](C)C[C@@H]2CC[C@@H](O)[C@H](OC)C2)CC(=O)[C@H](C)/C=C(\C)[C@@H](O)[C@@H](OC)C(=O)[C@H](C)C[C@H](C)/C=C/C=C/C=C/1C [Sirolimus (Rapamycin)] | -0.215 ± 0.18 |  |
| CNC[C@H](O)c1cccc(O)c1 | 0.418 ± 0.42 |  |
| CCN(CC)CCNC(=O)c1ccc(NC(C)=O)cc1 | 0.757 ± 0.096 |  |
| CN1C(=O)CC(C)(c2ccccc2)C1=O (stereo not drawn) | 0.499 ± 0.27 | -0.314 ± 0.74 |
| CCOC(=O)[C@H](CCc1ccccc1)N[C@@H](C)C(=O)N1[C@H](C(=O)O)C[C@H]2CCCC[C@@H]21 | -0.565 ± 0.58 |  |
| CC(C)(CO)[C@@H](O)C(=O)NCCCO | 0.215 ± 0.56 |  |
| CNC(=C[N+](=O)[O-])NCCSCc1ccc(CN(C)C)o1 | -0.766 ± 0.075 |  |
